Assay results: paper PMC12386978
No constants are given. Whether binding was seen depends on the method and setting. In cells and extracts the contact can be indirect. Some binding calls cover weakened binding; strength is not graded here. Sequences can lack the tags named with a protein.

Tests used:
[1] = molecular target: T1, NLuc-mCRY1 K151R (mouse (printed as mCRY1)) (UniProt P97784); test: split reporter; split-luciferase complementation; HEK293T cells co-transfected with NLuc-mCRY1 (wild-type or mutant) and a CLuc fusion of the partner; bioluminescence read 24 h after transfection in DMEM with 100 uM D-luciferin
T1 sequence: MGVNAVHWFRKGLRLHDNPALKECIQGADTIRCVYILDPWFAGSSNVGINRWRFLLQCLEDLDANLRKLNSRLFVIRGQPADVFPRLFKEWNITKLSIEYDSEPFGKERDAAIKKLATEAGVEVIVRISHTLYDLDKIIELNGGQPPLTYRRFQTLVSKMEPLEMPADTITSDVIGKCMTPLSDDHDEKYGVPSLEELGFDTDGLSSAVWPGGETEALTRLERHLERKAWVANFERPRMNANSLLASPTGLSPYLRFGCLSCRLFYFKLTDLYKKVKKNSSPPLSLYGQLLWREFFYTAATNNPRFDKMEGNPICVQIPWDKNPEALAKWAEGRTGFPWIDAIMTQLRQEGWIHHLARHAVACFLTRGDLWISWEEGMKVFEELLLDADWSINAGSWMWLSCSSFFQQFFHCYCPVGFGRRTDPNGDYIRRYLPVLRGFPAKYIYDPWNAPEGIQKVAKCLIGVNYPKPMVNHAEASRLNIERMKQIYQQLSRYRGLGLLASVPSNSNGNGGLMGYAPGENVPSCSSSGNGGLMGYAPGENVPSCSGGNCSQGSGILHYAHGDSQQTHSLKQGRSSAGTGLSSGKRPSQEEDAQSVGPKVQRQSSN

[2] = molecular target: T2, NLuc-mCRY1 (wild-type) (mouse (printed as mCRY1)) (UniProt P97784); test: as above
T2 sequence: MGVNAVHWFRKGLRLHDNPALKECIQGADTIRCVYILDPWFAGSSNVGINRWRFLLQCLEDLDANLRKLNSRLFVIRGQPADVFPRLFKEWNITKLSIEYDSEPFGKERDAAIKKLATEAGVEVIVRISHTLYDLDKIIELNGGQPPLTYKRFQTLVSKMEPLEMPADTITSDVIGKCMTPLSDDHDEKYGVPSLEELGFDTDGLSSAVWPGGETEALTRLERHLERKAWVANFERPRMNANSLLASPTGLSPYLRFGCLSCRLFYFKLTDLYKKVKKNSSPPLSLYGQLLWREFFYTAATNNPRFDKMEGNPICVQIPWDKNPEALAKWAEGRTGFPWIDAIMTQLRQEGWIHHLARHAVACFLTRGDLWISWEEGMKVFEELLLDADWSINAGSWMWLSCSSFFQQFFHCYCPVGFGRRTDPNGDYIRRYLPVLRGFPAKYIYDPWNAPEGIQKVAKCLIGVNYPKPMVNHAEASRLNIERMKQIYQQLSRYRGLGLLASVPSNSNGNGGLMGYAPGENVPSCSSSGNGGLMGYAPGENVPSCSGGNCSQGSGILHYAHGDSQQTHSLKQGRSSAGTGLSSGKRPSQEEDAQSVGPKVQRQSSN

[3] = molecular target: T3, NLuc-mCRY1 K151Q (mouse (printed as mCRY1)) (UniProt P97784); test: as above
T3 sequence: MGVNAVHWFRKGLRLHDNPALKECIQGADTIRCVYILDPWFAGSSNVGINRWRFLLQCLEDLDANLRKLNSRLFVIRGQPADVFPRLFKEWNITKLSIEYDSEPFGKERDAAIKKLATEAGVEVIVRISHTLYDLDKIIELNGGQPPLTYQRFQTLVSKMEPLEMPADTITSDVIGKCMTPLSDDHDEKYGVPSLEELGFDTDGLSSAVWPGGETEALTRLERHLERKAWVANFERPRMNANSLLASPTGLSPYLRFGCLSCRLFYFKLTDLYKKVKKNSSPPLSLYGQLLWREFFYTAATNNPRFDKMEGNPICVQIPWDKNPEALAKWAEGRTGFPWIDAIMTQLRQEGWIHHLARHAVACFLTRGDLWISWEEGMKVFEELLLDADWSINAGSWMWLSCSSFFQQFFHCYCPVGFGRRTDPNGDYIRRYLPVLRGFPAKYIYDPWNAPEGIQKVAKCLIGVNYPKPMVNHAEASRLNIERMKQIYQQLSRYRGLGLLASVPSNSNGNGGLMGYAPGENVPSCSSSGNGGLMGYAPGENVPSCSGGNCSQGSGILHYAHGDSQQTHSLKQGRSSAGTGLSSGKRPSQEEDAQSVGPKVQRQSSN

[4] = molecular target: T4, FLAG-CRY1 K151R (mouse (printed as mCRY1)) (UniProt P97784); test: co-IP; HEK293T co-transfected with FLAG-CRY1 and HA-FBXL21 or HA-BMAL1; 20 uM MG132 for 6 h before harvest; lysis in 25 mM Tris-HCl pH 7.6, 150 mM NaCl, 1% NP-40, 0.5 mM EDTA; anti-FLAG antibody overnight at 4 C, protein A/G magnetic beads; blots with anti-HA and anti-FLAG
T4 sequence: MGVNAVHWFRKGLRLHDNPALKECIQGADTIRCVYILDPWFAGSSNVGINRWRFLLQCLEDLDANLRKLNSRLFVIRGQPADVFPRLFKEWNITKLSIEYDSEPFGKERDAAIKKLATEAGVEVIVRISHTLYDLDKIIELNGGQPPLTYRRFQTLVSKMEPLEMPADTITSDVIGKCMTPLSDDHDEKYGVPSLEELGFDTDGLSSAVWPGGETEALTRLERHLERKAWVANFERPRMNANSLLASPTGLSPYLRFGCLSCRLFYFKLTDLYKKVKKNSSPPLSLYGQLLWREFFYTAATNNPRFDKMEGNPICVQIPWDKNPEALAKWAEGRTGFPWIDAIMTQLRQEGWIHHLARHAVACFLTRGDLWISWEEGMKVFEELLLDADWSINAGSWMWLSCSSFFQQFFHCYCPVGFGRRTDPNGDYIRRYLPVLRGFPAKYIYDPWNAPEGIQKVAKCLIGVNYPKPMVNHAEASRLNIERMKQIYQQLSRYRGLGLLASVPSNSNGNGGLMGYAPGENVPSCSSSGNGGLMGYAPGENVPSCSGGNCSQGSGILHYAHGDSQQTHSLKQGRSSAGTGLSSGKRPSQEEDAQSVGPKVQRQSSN

[5] = molecular target: T5, FLAG-CRY1 K151Q (mouse (printed as mCRY1)) (UniProt P97784); test: as above
T5 sequence: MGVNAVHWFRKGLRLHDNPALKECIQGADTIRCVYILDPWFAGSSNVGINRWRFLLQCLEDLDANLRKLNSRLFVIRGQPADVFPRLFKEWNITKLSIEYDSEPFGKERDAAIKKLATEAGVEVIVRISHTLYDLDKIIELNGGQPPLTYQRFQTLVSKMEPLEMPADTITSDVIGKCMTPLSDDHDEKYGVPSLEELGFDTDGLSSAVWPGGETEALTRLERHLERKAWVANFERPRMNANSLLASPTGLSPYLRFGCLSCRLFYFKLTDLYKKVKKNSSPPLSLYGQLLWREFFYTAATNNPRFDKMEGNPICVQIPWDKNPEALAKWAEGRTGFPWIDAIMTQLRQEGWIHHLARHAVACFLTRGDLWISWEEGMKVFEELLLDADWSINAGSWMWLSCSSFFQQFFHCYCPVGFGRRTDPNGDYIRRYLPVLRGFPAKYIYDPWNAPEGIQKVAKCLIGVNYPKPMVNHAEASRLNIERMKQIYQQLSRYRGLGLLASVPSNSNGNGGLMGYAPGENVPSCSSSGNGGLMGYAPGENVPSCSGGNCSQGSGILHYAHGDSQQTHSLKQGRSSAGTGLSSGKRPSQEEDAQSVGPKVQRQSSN

[6] = molecular target: T6, FLAG-CRY1 (WT) (mouse (printed as mCRY1)) (UniProt P97784); test: as above
T6 sequence: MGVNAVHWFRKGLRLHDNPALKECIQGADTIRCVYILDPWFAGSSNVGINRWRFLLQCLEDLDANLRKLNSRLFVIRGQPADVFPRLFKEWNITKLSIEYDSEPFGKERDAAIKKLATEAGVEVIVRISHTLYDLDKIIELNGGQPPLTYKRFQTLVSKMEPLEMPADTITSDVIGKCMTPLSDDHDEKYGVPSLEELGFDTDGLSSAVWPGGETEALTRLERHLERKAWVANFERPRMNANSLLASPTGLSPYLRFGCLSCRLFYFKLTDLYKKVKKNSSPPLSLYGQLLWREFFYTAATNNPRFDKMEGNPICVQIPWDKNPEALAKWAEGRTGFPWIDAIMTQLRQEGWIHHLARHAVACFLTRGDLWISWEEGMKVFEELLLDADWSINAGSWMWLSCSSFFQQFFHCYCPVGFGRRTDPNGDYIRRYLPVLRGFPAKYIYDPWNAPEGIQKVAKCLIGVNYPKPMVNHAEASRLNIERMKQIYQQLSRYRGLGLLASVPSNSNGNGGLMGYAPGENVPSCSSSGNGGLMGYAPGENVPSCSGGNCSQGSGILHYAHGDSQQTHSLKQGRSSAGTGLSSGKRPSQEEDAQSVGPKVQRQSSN

Measured: binding

B1: CLuc-FBXL3 (protein, UniProt Q8C4V4 1-428)
chain: MKRGGRDSDQDSAEEGTAEKPKRPRTTQERSQPCDWGNLLQDIVLHVFKYLPLLDRAHASQVCRNWNQVFHMPDLWRCFEFELNQPATSYLKATHPELIKQIIKRHSNHLQYVSFKVDSSKESAEAACDILSQLVNCSLKTLGLISTARPSFMDLPKSHFISALTVVFVNSKSLSSLKIDDTPVDDPSLKVLVANNSDTLKLLKMSSCPHVSPAGILCVADQCHGLRELALNYHLLSDELLLALSSEKHVRLEHLRIDVVSENPGQTHFHTIQKSSWDAFIKHSPKVNLVMYFFLYEEEFDPFFRYEIPATHLYFGRSVSKDVLGRVGMTCPRLVELVVCANGLRPLDEELIRIAERCKNLSAIGLGECEVSCSAFVEFVKMCGGRLSQLSIMEEVLIPDQKYSLEQIHWEVSKHLGRVWFPDMMPTW
binds: [1] | [2] | [3]

B2: CLuc-FBXL21 (protein, UniProt Q8BFZ4 1-434)
chain: MKRNNFSAVNKVVQSSPVVKQPKRGLCSSLRQTHALSVLLDWGTLPHHVILQIFQYLPLIDRARASSVCRRWNEVFHIPDLWRKFEFELNQSATSYFKSTHPDLIQQIIKKHAAHLQYVSFKVDSSTESAEAACDILSQLVNCSIQTLGLISTAKPSFMNVPKSHFVSALTVVFVNSKSLSSIKIEDTPVDDPSLKILVANNSDTLRLLKMSSCPHVSSDGILCVADHCQGLRELALNYYILSDEILLALSSETHVNLEHLRIDVVSENPGQIKFHSIKKRSWDALIKHSPRVNVVMYFFLYEEEFEAFFKEETPVTHLYFGRSVSRAILGRIGLNCPRLIELVVCANGLLPLDSELIRIAKHCKNLTSLGLSECEVSCSAFVEFVRLCGRRLTQLSIMEEVLVPDDRYTPDEVHTEVSKHLGRVWFPDVMPIW
binds: [1] | [2] | [3]

B3: HA-FBXL21 (protein, UniProt Q8BFZ4 1-434)
chain: MKRNNFSAVNKVVQSSPVVKQPKRGLCSSLRQTHALSVLLDWGTLPHHVILQIFQYLPLIDRARASSVCRRWNEVFHIPDLWRKFEFELNQSATSYFKSTHPDLIQQIIKKHAAHLQYVSFKVDSSTESAEAACDILSQLVNCSIQTLGLISTAKPSFMNVPKSHFVSALTVVFVNSKSLSSIKIEDTPVDDPSLKILVANNSDTLRLLKMSSCPHVSSDGILCVADHCQGLRELALNYYILSDEILLALSSETHVNLEHLRIDVVSENPGQIKFHSIKKRSWDALIKHSPRVNVVMYFFLYEEEFEAFFKEETPVTHLYFGRSVSRAILGRIGLNCPRLIELVVCANGLLPLDSELIRIAKHCKNLTSLGLSECEVSCSAFVEFVRLCGRRLTQLSIMEEVLVPDDRYTPDEVHTEVSKHLGRVWFPDVMPIW
binds: [4] | [5] | [6]
